The source of these data is paper PMC4452637, “Identification of positron emission tomography (PET) tracer candidates by prediction of the target-bound fraction in the brain” (EJNMMI Research, 2014).

One data set relates to NET. The settings on record: Yes/No: utility in vivo for reliable quantification of specific target binding; 79 (Additional file 1); cited from earlier work.
The next data set relates to D2. Nature of the data set: PET imaging of specific target binding (BPND, tracer functionality). It counts as in vivo.
Data set [1] deals with Amyloid. Described as above. It counts as in vivo. The settings on record: derived from BPND, Eq. 4; cortex.
Data set [2] deals with Amyloid. To be noted: Yes/No: utility in vivo for reliable quantification of specific target binding; ref Additional file 1: Table S1; cited from earlier work.
Data set [3] relates to SERT. Nature of the data set: PET imaging of specific target binding (BPND, tracer functionality). It counts as in vivo. The settings on record: derived from BPND, Eq. 4; caudate.
Data set [4] relates to SERT. To be noted: Yes/No: utility in vivo for reliable quantification of specific target binding; No: data on file or ref 66, 80 (Additional file 1); cited from earlier work.
Another data set deals with GABA. To be noted: Yes/No: utility in vivo for reliable quantification of specific target binding; No: data on file; ref Additional file 1: Table S1; cited from earlier work.
Data set [5] has as its system 5HT2a. As to the kind of experiment: PET imaging of specific target binding (BPND, tracer functionality). The settings on record: derived from BPND, Eq. 4; temporal cortex. In kind it is in vivo.
For data set [6], the system named is 5HT2a. The settings on record: Yes/No: utility in vivo for reliable quantification of specific target binding; ref Additional file 1: Table S1; cited from earlier work.
The next data set concerns DAT. As to the kind of experiment: PET imaging of specific target binding (BPND, tracer functionality). It counts as in vivo. To be noted: derived from BPND, Eq. 4; striatum.
In data set [7] the test system is TSPO. Described as above. In kind it is in vivo.
Data set [8] deals with TSPO. To be noted: Yes/No: utility in vivo for reliable quantification of specific target binding; ref Additional file 1: Table S1; cited from earlier work.
The test system of the next data set is 5HT1a. Nature of the data set: PET imaging of specific target binding (BPND, tracer functionality). In kind it is in vivo. The settings on record: derived from BPND, Eq. 4; hippocampus.
Setting [9] is: derived from BPND, Eq. 4, caudate/striatum.
[10] abbreviates: derived from BPND, Eq. 4, thalamus.

For `COc1ccccc1OC(CCN[11CH3])c1ccccc1` (racemic) [[^11C]Nisoxetine], the Functioning entry in the data set on NET was “No and No[79]”.

For `CCN1CCC[C@H]1CNC(=O)c1c(O)c(Cl)cc(Cl)c1O[11CH3]` (racemic) [[^11C]Raclopride], in the data set with D2 (setting [9]), the “f tb (PET data)” value worked out at 0.72.

Take `[11CH3]Nc1ccc(-c2nc3ccc(O)cc3s2)cn1` [[^11C]AZD2184]: the “f tb (PET data)” value with Amyloid [1] amounted to 0.52. In addition, the Functioning result in the data set with Amyloid [2] is listed as “Yes”.

With `CN([11CH3])Cc1ccccc1Sc1ccc(C#N)cc1N` [[^11C]DASB], the “f tb (PET data)” value with SERT [3] is recorded as 0.62. Also, in the data set with SERT [4], the Functioning entry was “Yes”.

As to `[11CH3]NCCCN1c2ccccc2CCc2ccccc21` [[^11C]Desipramine], the Functioning entry in the data set on NET was “No and No[71]”.

Consider `[11CH3]N1C(=O)CN=C(c2ccccc2)c2cc(Cl)ccc21` [[^11C]Diazepam], for which the Functioning result in the data set on GABA was “No and No^a”.

Regarding `CCN1CCC[C@H]1CNC(=O)c1cc(Br)cc(OC)c1O[11CH3]` [[^11C]FLB457], the “f tb (PET data)” value with D2 (setting [10]) was determined as 0.72.

`CCOC(=O)c1ncn2c1CN(C)C(=O)c1cc(F)ccc1-2` [[^11C]Flumazenil]: the Functioning result with GABA is “Yes”.

On to `Cc1ccc(Sc2ccccc2CN(C)[11CH3])c(N)c1` [[^11C]MADAM], for which the “f tb (PET data)” value in the data set with SERT [3] was found to be 0.58. Further, in the data set on SERT [4], the Functioning result is “Yes”.

With `COc1c(O[11CH3])cccc1[C@H](O)C1CCN(CCc2ccc(F)cc2)CC1` [[^11C]MDL100907], the “f tb (PET data)” value in the data set with 5HT2a [5] is given as 0.57. Also, in the data set with 5HT2a [6], the Functioning result was “Yes”.

Take `[11CH3]Sc1ccc([C@H]2CN3CCC[C@H]3c3ccccc32)cc1` [[^11C]McN5652]: the “f tb (PET data)” value with SERT [3] came to 0.33. For the same compound, in the data set with SERT [4], the Functioning entry was “Yes”.

Consider `[11CH3]Oc1ccccc1O[C@@H](c1ccccc1)[C@H]1CNCCO1` [[^11C]MeNER], for which the Functioning entry in the data set on NET was “No and No[75]”.

`Cc1ccc(C2CC3CCC(C2C(=O)O[11CH3])N3CC=CI)cc1` (centres unmarked) [[^11C]PE2I]: the “f tb (PET data)” value in the data set with DAT amounted to 0.89.

Take `[11CH3]Nc1ccc(-c2nc3ccc(O)cc3s2)cc1` [[^11C]PIB]: the “f tb (PET data)” value in the data set on Amyloid [1] was determined as 0.46. The Functioning entry in the data set on Amyloid [2] was “Yes”.

For `CCC(C)N(C)C(=O)c1cc2ccccc2c(-c2ccccc2Cl)n1` (centres unmarked) [[^11C]PK11195], the “f tb (PET data)” value in the data set on TSPO [7] (in vivo) came out at 0.15. Moreover, the Functioning entry in the data set with TSPO [8] was “Yes”.

Regarding `CCN1CCC[C@H]1CNC(=O)c1c(OC)ccc(Br)c1OC` [[^11C]Remoxipride], the “f tb (PET data)” value in the data set with D2 (non-functioning tracer: arbitrary low value assigned, not derived from PET data) worked out at 0.09.

`COc1ccccc1N1CCN(CCN(c2ccccn2)[11C](=O)C2CCCCC2)CC1` [[^11C]WAY100635]: in the data set on 5HT1a, the “f tb (PET data)” value came to 0.88.

Turning to `CNc1ccc(-c2cc3cc(O)ccc3o2)c([18F])n1` [[^18 F]AZD4694], the “f tb (PET data)” value in the data set with Amyloid [1] is on record as 0.55. The Functioning entry with Amyloid [2] is reported as “Yes”.

For the compound `O=C(c1ccc([18F])cc1)C1CCN(CCn2c(=S)[nH]c3ccccc3c2=O)CC1` [[^18 F]Altanserin], the “f tb (PET data)” value in the data set with 5HT2a [5] was found to be 0.51. Further, in the data set on 5HT2a [6], the Functioning entry is recorded as “Yes”.

`Cc1ccc([C@H]2C[C@@H]3CC[C@H]([C@H]2C(=O)OCC[18F])N3C/C=C/I)cc1` [[^18 F]FE-PE2I]: in the data set with DAT, the “f tb (PET data)” value is recorded as 0.80.

As to `CC(=O)N(Cc1ccccc1OCC[18F])c1cnccc1Oc1ccccc1` [[^18 F]FEPPA], the “f tb (PET data)” value in the data set on TSPO [7] (derived from BPND, Eq. 4, basal ganglia) stood at 0.81. Further, the Functioning entry with TSPO [8] was “Yes”.

With `COC(=O)[C@H]1[C@@H](c2ccc(I)cc2)C[C@@H]2CC[C@H]1N2CCC[18F]` [[^18 F]FP-CIT], the “f tb (PET data)” value in the data set with DAT worked out at 0.50.

For the compound `C=CCN1CCC[C@H]1CNC(=O)c1cc(CCC[18F])cc(OC)c1OC` [[^18 F]Fallypride], the “f tb (PET data)” value was found to be 0.96 in the data set with D2 (setting [9]) and 0.68 in the data set on D2 (setting [10]).

Regarding `COc1ccccc1N1CCN(CCN(C(=O)c2ccc([18F])cc2)c2ccccn2)CC1` [[^18 F]MPPF], the “f tb (PET data)” value in the data set on 5HT1a turned out to be 0.62.
